# Data as given in the supplement of paper PMC8728848.
# The list shows a part of the results.
# What was measured:
# Assay in all cases: glycan array binding signal (z-score within array); higher = stronger binding
# Conditions in all cases: glycan notation: IUPAC condensed, linker removed
# [1] = molecular target: Neu5Ac(a2-6)GlcNAc(b1-4)GlcNAc(b1-4)GlcNAc
# Summary of the method: (§1)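 The binding signal is a Z-score computed within each array and averaged over linkers. Arrays of the same protein sequence at different concentrations or buffers were also averaged together. Data originate from 3228 arrays in the Consortium for Functional Glycomics database, kept only where the protein sequence was available.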
# [2] = molecular target: Neu5Ac(a2-8)Neu5Ac
# Summary of the method: as §1
# [3] = molecular target: Neu5Ac(a2-8)Neu5Ac(a2-3)Gal(b1-3)GalNAc(b1-4)[Neu5Ac(a2-3)]Gal(b1-4)Glc
# Summary of the method: as §1
# [4] = molecular target: Neu5Ac(a2-8)Neu5Ac(a2-3)Gal(b1-3)GalNAc(b1-4)[Neu5Ac(a2-8)Neu5Ac(a2-3)]Gal(b1-4)Glc
# Summary of the method: as §1
# [5] = molecular target: Neu5Ac(a2-8)Neu5Ac(a2-3)Gal(b1-4)Glc
# Summary of the method: as §1
# [6] = molecular target: Neu5Ac(a2-8)Neu5Ac(a2-3)Gal(b1-4)GlcNAc
# Summary of the method: as §1
# [7] = molecular target: Neu5Ac(a2-8)Neu5Ac(a2-3)[Gal(b1-3)GalNAc(b1-4)]Gal(b1-4)Glc
# Summary of the method: as §1
# [8] = molecular target: Neu5Ac(a2-8)Neu5Ac(a2-3)[GalNAc(b1-4)]Gal(b1-4)Glc
# Summary of the method: as §1
# [9] = molecular target: Neu5Ac(a2-8)Neu5Ac(a2-8)Neu5Ac
# Summary of the method: as §1
# [10] = molecular target: Neu5Ac(a2-8)Neu5Ac(a2-8)Neu5Ac(a2-3)Gal(b1-4)Glc
# Summary of the method: as §1
# [11] = molecular target: Neu5Ac(a2-8)Neu5Ac(a2-8)Neu5Ac(a2-3)[Gal(b1-3)GalNAc(b1-4)]Gal(b1-4)Glc
# Summary of the method: as §1
# [12] = molecular target: Neu5Ac(a2-8)Neu5Ac(a2-8)Neu5Ac(a2-3)[GalNAc(b1-4)]Gal(b1-4)Glc
# Summary of the method: as §1
# [13] = molecular target: Neu5Ac(a2-8)Neu5Ac(a2-8)Neu5Ac(a2-8)Neu5Ac(a2-3)[GalNAc(b1-4)]Gal(b1-4)Glc
# Summary of the method: as §1
# [14] = molecular target: Neu5Ac(a2-8)Neu5Gc(a2-3)Gal(b1-4)GlcNAc
# Summary of the method: as §1
# [15] = molecular target: Neu5Ac(b2-6)Gal(b1-4)GlcNAc
# Summary of the method: as §1
# [16] = molecular target: Neu5Ac(b2-6)GalNAc
# Summary of the method: as §1
# [17] = molecular target: Neu5Ac9Ac(a2-3)Gal(b1-3)GlcNAc
# Summary of the method: as §1
# [18] = molecular target: Neu5Ac9Ac(a2-3)Gal(b1-4)GlcNAc
# Summary of the method: as §1
# [19] = molecular target: Neu5Ac9Ac(a2-6)Gal(b1-4)GlcNAc
# Summary of the method: as §1
# [20] = molecular target: Neu5Gc(a2-3)Gal(b1-3)GlcNAc
# Summary of the method: as §1
# [21] = molecular target: Neu5Gc(a2-3)Gal(b1-3)[Fuc(a1-4)]GlcNAc
# Summary of the method: as §1
# [22] = molecular target: Neu5Gc(a2-3)Gal(b1-4)Glc
# Summary of the method: as §1
# [23] = molecular target: Neu5Gc(a2-3)Gal(b1-4)GlcNAc
# Summary of the method: as §1
# [24] = molecular target: Neu5Gc(a2-3)Gal(b1-4)GlcNAc(b1-3)Gal(b1-4)GlcNAc(b1-2)Man(a1-3)[Neu5Gc(a2-3)Gal(b1-4)GlcNAc(b1-3)Gal(b1-4)GlcNAc(b1-2)Man(a1-6)]Man(b1-4)GlcNAc(b1-4)GlcNAc
# Summary of the method: as §1
# [25] = molecular target: Neu5Gc(a2-3)Gal(b1-4)[Fuc(a1-3)]GlcNAc
# Summary of the method: as §1
# [26] = molecular target: Neu5Gc(a2-6)Gal(b1-4)GlcNAc
# Summary of the method: as §1
# [27] = molecular target: Neu5Gc(a2-6)GalNAc
# Summary of the method: as §1
# [28] = molecular target: Neu5Gc(a2-8)Neu5Ac(a2-3)Gal(b1-4)GlcNAc
# Summary of the method: as §1
# [29] = molecular target: Neu5Gc(a2-8)Neu5Gc(a2-3)Gal(b1-4)GlcNAc
# Summary of the method: as §1
# [30] = molecular target: Neu5Gc(a2-8)Neu5Gc(a2-3)Gal(b1-4)GlcNAc(b1-3)Gal(b1-4)GlcNAc
# Summary of the method: as §1
# [31] = molecular target: Neu5Gc(a2-8)Neu5Gc(a2-6)Gal(b1-4)GlcNAc
# Summary of the method: as §1
# [32] = molecular target: Neu5Gc(b2-6)Gal(b1-4)GlcNAc
# Summary of the method: as §1
binder,measurement,setting,value
Agalectin (Anopheles gambiae) (protein) MSNRPFTAKFPRYPENGDEVFIRGKLKDDAKSFSVNFCLPRPAQVAEHQTPPYIALHFKTIYDERDDTSRVVLNWKNLQWQQEEVLDNYWHVDRSQTFRVVFRLHEDCIKVFVNSVDHPPDYQFPVQLPLDQIESIELWDDVEHVEEISFRYDNGNSY,glycan array binding signal (z-score),[1],-0.452
same,glycan array binding signal (z-score),[2],1.39
same,glycan array binding signal (z-score),[3],-0.061
same,glycan array binding signal (z-score),[4],0.647
same,glycan array binding signal (z-score),[5],-1.45
same,glycan array binding signal (z-score),[6],-0.855
same,glycan array binding signal (z-score),[7],-0.464
same,glycan array binding signal (z-score),[8],0.168
same,glycan array binding signal (z-score),[9],0.742
same,glycan array binding signal (z-score),[10],0.369
same,glycan array binding signal (z-score),[11],-0.035
same,glycan array binding signal (z-score),[12],-0.183
same,glycan array binding signal (z-score),[13],-0.422
same,glycan array binding signal (z-score),[14],-1.09
same,glycan array binding signal (z-score),[15],-0.879
same,glycan array binding signal (z-score),[16],-1.01
same,glycan array binding signal (z-score),[17],-0.958
same,glycan array binding signal (z-score),[18],-0.305
same,glycan array binding signal (z-score),[19],-0.921
same,glycan array binding signal (z-score),[20],0.15
same,glycan array binding signal (z-score),[21],-0.788
same,glycan array binding signal (z-score),[22],-0.541
same,glycan array binding signal (z-score),[23],-0.288
same,glycan array binding signal (z-score),[24],-0.007
same,glycan array binding signal (z-score),[25],-0.729
same,glycan array binding signal (z-score),[26],-0.281
same,glycan array binding signal (z-score),[27],-0.611
same,glycan array binding signal (z-score),[28],-0.431
same,glycan array binding signal (z-score),[29],-0.636
same,glycan array binding signal (z-score),[30],0.981
same,glycan array binding signal (z-score),[31],-0.681
same,glycan array binding signal (z-score),[32],2.8

# In a second layout: entries from further up.
binder | measurement | setting | value
Agalectin (Anopheles gambiae) (protein) MSNRPFTAKFPRYPENGDEVFIRGKLKDDAKSFSVNFCLPRPAQVAEHQTPPYIALHFKTIYDERDDTSRVVLNWKNLQWQQEEVLDNYWHVDRSQTFRVVFRLHEDCIKVFVNSVDHPPDYQFPVQLPLDQIESIELWDDVEHVEEISFRYDNGNSY | glycan array binding signal (z-score) | [10] | 0.369
same | glycan array binding signal (z-score) | [18] | -0.305
